These are yes or no findings as the source states them, for the method shown. Binding seen in cells or lysates may run through a third protein. Some entries that bind do so weakly or less than the wild type. Sequences can lack the tags named with a protein.

Amino acid sequences for entries named in this document (tags omitted).
UniProt Q14240: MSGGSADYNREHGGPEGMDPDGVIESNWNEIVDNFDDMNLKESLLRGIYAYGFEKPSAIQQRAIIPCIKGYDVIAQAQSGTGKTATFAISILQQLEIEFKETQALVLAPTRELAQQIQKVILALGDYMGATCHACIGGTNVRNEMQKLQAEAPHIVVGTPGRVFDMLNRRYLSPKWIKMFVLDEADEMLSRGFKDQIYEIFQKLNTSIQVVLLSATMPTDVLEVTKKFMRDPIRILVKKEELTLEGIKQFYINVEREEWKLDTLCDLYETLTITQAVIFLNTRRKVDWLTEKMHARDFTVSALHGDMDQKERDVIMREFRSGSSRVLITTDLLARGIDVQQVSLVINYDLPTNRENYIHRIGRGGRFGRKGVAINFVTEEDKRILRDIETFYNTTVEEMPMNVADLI
UniProt P20042: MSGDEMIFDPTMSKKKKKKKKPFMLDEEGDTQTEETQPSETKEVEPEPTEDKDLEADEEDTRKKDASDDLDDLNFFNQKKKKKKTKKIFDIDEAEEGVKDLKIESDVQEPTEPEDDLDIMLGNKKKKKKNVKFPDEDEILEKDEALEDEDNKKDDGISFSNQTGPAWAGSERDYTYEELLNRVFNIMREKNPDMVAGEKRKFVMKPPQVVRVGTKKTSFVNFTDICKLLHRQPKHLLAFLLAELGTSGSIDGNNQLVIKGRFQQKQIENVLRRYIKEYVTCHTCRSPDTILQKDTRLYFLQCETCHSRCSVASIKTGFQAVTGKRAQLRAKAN

Test [1] addresses T1, V5-SBP-DAP5 (Death-associated protein 5), full length (human) (UniProt P78344).
T1 sequence: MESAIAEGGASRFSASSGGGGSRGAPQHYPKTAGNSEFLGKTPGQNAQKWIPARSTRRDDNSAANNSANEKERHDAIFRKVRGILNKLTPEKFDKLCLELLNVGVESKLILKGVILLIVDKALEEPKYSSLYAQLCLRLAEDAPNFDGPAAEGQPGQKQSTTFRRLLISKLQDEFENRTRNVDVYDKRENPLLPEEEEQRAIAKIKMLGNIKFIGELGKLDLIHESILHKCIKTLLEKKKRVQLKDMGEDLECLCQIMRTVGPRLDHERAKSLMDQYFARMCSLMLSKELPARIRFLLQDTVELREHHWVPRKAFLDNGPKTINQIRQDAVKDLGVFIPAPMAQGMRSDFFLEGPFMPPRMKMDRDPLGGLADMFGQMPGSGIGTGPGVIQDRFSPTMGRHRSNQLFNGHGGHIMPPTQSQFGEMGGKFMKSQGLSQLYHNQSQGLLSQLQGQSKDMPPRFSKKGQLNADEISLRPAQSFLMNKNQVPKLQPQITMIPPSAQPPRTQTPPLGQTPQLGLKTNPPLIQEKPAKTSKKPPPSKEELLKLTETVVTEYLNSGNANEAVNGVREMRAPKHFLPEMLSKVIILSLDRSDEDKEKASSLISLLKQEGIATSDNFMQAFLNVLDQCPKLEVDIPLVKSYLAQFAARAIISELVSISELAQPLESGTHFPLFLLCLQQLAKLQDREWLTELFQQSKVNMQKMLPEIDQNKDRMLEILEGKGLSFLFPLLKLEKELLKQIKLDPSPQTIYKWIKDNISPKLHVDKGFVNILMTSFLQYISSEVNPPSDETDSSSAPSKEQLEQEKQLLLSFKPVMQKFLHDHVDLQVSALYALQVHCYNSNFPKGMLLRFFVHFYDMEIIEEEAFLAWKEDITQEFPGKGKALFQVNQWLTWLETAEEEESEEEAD
The test is described as follows: pull-down.

In test [2] the target is T2, V5-SBP-DAP5 ΔW2 (residues 1-722) (human) (UniProt P78344).
T2 sequence: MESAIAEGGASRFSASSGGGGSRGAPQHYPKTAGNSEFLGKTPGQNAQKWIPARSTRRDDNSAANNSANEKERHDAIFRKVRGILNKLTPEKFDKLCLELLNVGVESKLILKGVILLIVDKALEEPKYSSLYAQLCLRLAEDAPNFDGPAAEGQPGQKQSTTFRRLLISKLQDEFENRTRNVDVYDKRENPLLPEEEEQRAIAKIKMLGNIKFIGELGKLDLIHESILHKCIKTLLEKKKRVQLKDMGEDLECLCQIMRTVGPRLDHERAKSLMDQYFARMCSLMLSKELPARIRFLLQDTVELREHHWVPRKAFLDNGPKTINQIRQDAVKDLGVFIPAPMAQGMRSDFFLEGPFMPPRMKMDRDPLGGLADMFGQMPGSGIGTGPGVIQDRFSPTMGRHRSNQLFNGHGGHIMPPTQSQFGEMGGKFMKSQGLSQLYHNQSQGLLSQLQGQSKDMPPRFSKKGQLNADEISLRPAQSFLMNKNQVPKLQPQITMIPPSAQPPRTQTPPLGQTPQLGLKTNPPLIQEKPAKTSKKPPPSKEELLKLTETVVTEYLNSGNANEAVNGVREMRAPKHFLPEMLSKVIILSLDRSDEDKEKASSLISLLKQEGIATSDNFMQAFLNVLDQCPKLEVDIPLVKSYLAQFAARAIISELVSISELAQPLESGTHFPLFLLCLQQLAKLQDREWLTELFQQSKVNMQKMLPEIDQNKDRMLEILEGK
The test is described as follows: pull-down.

eIF4A2 (from UniProt Q14240 1-407): the binding entry in test [1] is recorded as “binds”. For GFP-eIF2β (from UniProt P20042 1-333), the binding result in test [1] is “binds”; in test [2], “no binding”.
